Compound in this assay: CN[C@@H]1C[C@H]2O[C@@](C)([C@@H]1OC)n1c3ccccc3c3c4c(c5c6ccccc6n2c5c31)C(=O)NC4 [staurosporine]
Nature of the assay: log2 fold change of tryptic peptide abundance, ligand vs vehicle (limited proteolysis) (log2 ratio); higher = more trypsin-susceptible (destabilized). Conditions: ligand concentration: 20 uM; sample: K562 cleared lysate; digestion: 4 min, 22 C (HT-PELSA RT4min, Orbitrap Astral).

Chains of the proteins cited; added tags and fusions are not shown. Lines headed by an entry give the natural chain unless they say otherwise; changes in a name come on top.
UniProt Q9H9A7: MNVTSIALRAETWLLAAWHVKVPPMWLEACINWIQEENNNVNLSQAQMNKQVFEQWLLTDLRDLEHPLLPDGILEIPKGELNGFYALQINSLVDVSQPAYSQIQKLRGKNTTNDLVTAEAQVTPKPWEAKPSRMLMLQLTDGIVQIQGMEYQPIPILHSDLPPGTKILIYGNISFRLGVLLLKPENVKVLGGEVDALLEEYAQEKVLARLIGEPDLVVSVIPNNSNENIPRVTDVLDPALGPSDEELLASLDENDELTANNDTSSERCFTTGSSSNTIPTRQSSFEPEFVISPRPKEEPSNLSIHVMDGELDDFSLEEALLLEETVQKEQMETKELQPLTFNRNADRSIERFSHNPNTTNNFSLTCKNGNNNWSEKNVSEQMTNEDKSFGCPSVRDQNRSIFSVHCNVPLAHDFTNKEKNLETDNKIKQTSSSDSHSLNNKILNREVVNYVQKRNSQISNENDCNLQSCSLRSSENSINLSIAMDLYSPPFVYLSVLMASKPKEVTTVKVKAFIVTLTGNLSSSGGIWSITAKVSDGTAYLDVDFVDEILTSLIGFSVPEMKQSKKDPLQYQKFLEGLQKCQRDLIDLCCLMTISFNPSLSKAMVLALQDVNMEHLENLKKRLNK
UniProt Q9NP80: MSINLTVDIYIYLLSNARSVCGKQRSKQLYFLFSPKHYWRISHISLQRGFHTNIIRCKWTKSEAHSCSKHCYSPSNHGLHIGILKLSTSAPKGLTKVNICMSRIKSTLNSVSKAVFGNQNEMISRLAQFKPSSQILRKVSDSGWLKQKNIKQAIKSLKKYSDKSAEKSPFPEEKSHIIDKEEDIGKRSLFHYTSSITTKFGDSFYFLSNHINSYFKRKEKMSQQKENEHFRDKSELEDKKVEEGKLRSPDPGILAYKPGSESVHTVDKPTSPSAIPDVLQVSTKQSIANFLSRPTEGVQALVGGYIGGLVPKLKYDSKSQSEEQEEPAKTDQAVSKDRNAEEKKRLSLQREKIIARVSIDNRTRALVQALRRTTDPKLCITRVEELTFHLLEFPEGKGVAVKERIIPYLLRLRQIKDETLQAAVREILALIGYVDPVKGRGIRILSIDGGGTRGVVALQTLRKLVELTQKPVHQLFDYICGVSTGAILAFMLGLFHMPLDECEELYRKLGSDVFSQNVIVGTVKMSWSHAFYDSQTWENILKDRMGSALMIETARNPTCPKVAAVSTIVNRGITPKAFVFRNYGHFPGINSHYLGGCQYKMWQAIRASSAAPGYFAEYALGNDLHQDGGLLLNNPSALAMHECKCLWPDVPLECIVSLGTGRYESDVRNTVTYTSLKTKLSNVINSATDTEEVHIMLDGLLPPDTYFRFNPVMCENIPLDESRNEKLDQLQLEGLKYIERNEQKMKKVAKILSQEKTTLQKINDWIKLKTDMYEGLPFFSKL
UniProt Q9HB20: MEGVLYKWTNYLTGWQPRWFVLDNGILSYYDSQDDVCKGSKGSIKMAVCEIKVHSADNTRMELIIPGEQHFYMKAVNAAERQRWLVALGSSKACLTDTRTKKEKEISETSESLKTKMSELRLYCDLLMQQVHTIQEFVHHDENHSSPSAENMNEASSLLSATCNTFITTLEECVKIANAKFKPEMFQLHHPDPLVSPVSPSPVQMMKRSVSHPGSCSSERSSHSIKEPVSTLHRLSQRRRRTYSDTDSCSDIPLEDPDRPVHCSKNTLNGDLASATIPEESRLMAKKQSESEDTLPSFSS
UniProt Q9NP61: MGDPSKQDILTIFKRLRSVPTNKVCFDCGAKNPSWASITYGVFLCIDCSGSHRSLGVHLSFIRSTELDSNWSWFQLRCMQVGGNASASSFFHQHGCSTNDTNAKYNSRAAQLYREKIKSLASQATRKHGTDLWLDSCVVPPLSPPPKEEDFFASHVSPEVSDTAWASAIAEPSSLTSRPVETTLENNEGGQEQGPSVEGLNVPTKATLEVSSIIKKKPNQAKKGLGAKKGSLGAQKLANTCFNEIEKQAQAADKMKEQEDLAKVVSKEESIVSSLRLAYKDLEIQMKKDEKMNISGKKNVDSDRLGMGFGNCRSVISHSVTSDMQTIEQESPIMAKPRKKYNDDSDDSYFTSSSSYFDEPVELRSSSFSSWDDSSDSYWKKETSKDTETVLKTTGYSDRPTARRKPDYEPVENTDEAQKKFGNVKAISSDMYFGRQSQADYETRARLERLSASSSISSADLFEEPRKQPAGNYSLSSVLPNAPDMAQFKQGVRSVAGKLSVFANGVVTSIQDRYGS
UniProt Q9NNW7, whole entry: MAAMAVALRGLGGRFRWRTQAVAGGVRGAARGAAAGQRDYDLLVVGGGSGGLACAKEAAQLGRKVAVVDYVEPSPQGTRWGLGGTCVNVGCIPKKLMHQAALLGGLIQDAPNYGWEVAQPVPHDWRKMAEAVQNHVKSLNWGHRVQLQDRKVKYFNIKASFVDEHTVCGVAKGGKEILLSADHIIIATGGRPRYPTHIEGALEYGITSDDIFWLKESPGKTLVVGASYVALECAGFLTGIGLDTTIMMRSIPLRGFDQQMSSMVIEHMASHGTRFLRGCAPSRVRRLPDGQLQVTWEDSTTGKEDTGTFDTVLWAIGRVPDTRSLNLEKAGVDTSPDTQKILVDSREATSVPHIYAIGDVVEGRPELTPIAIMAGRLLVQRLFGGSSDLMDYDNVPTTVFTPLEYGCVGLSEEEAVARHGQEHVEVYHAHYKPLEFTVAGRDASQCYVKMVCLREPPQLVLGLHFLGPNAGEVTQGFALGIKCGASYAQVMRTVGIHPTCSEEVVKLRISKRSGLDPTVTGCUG
UniProt Q9H6H4: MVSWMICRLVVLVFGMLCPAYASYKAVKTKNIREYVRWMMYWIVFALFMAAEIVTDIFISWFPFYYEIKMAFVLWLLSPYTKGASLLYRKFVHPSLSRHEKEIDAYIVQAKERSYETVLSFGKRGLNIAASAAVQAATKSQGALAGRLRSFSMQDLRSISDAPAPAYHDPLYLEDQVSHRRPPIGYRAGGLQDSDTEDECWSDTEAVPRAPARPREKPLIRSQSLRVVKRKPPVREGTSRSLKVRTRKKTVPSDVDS
UniProt Q9H9H4: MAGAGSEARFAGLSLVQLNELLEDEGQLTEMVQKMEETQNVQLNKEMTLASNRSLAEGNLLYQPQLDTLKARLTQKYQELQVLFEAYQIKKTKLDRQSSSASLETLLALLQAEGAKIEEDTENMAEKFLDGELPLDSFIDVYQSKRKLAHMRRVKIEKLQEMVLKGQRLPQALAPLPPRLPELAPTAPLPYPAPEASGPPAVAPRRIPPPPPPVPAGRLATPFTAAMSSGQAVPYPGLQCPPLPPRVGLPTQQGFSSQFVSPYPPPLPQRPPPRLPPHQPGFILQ
UniProt Q9HC38: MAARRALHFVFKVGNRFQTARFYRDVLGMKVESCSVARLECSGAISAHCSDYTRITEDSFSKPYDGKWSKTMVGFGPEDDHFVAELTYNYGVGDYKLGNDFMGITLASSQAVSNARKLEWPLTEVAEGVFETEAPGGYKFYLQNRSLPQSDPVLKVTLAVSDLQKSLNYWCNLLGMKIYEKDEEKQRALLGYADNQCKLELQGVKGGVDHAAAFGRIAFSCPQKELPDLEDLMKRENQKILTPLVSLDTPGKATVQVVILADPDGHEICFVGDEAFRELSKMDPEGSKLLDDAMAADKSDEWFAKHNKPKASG

This is one part of the list. Small differences around the control level are noise.

In the case of “RMI1 (peptide sequence: SIFSVHCNVPLAHDFTNKEK, peptide start residue: 400) (UniProt Q9H9A7)”, the log2 fold change was -0.976.
Under “PNPLA8 (peptide sequence: GVVALQTLR, peptide start residue: 454) (UniProt Q9NP80)” stands 0.17.
Consider “PLEKHA3 (peptide sequence: SVSHPGSCSSER, peptide start residue: 209) (UniProt Q9HB20)”, for which the log2 fold change is -0.0836.
For “ARFGAP3 (peptide sequence: KPDYEPVENTDEAQKK, peptide start residue: 405) (UniProt Q9NP61)”, the log2 fold change is 0.602.
Under “TXNRD2 (peptide sequence: EILLSADHIIIATGGRPR, peptide start residue: 176) (UniProt Q9NNW7)” stands 0.262; under “REEP4 (peptide sequence: SYETVLSFGK, peptide start residue: 114) (UniProt Q9H6H4)”, -0.178; under “VPS37B (peptide sequence: YQELQVLFEAYQIKK, peptide start residue: 77) (UniProt Q9H9H4)”, 0.398.
For “GLOD4 (peptide sequence: ALLGYADNQCK, peptide start residue: 188) (UniProt Q9HC38)”, the log2 fold change was 0.227.

The values are drawn from the supplement of paper PMC12819154, “High-throughput peptide-centric local stability assay extends protein–ligand identification to membrane proteins, tissues and bacteria” (Nature Structural & Molecular Biology, 2025).
